Drawing on paper doi:10.1101/2022.10.24.513561, this text covers binding for two molecules.

Amino acid sequences for entries named in this document (tags omitted).
UniProt P20585: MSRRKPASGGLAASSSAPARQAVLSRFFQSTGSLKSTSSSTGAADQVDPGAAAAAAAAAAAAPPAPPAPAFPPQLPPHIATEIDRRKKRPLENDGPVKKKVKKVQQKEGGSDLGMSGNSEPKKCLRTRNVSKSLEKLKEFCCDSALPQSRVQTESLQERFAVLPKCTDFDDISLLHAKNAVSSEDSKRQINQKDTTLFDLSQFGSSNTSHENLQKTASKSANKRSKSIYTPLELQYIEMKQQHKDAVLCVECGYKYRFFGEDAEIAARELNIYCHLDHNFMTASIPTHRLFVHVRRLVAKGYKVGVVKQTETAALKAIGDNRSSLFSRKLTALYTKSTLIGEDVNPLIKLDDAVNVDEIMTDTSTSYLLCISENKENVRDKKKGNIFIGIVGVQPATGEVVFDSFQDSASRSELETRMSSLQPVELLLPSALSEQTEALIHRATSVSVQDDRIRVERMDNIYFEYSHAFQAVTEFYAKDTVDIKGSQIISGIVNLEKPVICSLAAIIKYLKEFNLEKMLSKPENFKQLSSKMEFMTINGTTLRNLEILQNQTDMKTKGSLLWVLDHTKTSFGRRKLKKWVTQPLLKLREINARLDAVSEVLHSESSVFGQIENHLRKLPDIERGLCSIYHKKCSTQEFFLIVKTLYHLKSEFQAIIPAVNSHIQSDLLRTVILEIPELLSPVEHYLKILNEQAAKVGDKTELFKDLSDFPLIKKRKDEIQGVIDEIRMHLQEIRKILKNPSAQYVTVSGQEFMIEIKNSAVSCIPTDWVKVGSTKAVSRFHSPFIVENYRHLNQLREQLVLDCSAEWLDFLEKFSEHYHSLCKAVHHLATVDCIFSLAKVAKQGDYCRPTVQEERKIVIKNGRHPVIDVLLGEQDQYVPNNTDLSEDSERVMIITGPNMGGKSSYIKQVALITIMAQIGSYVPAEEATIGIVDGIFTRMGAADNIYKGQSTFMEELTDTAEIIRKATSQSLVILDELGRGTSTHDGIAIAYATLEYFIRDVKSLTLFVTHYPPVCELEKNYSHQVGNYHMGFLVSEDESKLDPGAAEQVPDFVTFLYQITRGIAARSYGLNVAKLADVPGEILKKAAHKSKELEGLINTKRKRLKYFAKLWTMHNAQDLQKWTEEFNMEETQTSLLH

The target of the assay is T1, FLAG-BioID2-RPA4 (human) (UniProt Q13156).
T1 sequence: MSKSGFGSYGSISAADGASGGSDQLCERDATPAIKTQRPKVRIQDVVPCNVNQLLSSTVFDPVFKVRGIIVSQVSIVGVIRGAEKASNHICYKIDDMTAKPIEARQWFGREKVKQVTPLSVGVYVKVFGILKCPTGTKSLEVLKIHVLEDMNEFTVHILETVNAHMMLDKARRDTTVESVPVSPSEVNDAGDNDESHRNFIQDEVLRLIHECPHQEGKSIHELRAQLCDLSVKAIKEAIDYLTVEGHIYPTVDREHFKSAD
The assay can be described thus: proximity labelling.

Results are given in words; binding and its absence hold for the method and conditions named. Binding seen in cells or lysates may run through a third protein. These calls come from enrichment with a bait or labelling near it, and not all partners need be listed. Tags and fused reporters may be left off the sequences shown.

Take MSH3 (from UniProt P20585 1-1137): the binding result was “binds”.

B1: XPG (protein, UniProt P28715 1-1186)
chain: MGVQGLWKLLECSGRQVSPEALEGKILAVDISIWLNQALKGVRDRHGNSIENPHLLTLFHRLCKLLFFRIRPIFVFDGDAPLLKKQTLVKRRQRKDLASSDSRKTTEKLLKTFLKRQAIKTAFRSKRDEALPSLTQVRRENDLYVLPPLQEEEKHSSEEEDEKEWQERMNQKQALQEEFFHNPQAIDIESEDFSSLPPEVKHEILTDMKEFTKRRRTLFEAMPEESDDFSQYQLKGLLKKNYLNQHIEHVQKEMNQQHSGHIRRQYEDEGGFLKEVESRRVVSEDTSHYILIKGIQAKTVAEVDSESLPSSSKMHGMSFDVKSSPCEKLKTEKEPDATPPSPRTLLAMQAALLGSSSEEELESENRRQARGRNAPAAVDEGSISPRTLSAIKRALDDDEDVKVCAGDDVQTGGPGAEEMRINSSTENSDEGLKVRDGKGIPFTATLASSSVNSAEEHVASTNEGREPTDSVPKEQMSLVHVGTEAFPISDESMIKDRKDRLPLESAVVRHSDAPGLPNGRELTPASPTCTNSVSKNETHAEVLEQQNELCPYESKFDSSLLSSDDETKCKPNSASEVIGPVSLQETSSIVSVPSEAVDNVENVVSFNAKEHENFLETIQEQQTTESAGQDLISIPKAVEPMEIDSEESESDGSFIEVQSVISDEELQAEFPETSKPPSEQGEEELVGTREGEAPAESESLLRDNSERDDVDGEPQEAEKDAEDSLHEWQDINLEELETLESNLLAQQNSLKAQKQQQERIAATVTGQMFLESQELLRLFGIPYIQAPMEAEAQCAILDLTDQTSGTITDDSDIWLFGARHVYRNFFNKNKFVEYYQYVDFHNQLGLDRNKLINLAYLLGSDYTEGIPTVGCVTAMEILNEFPGHGLEPLLKFSEWWHEAQKNPKIRPNPHDTKVKKKLRTLQLTPGFPNPAVAEAYLKPVVDDSKGSFLWGKPDLDKIREFCQRYFGWNRTKTDESLFPVLKQLDAQQTQLRIDSFFRLAQQEKEDAKRIKSQRLNRAVTCMLRKEKEAAASEIEAVSVAMEKEFELLDKAKGKTQKRGITNTLEESSSLKRKRLSDSKGKNTCGGFLGETCLSESSDGSSSEDAESSSLMNVQRRTAAKEPKTSASDSQNSVKEAPVKNGGATTSSSSDSDDDGGKEKMVLVTARSVFGKKRRKLRRARGRKRKT
As to B1, the binding entry was “binds”.
